Paper PMC7603486

Chains of the proteins cited; added tags and fusions are not shown. Lines headed by an entry give the natural chain unless they say otherwise; changes in a name come on top.
UniProt Q6IQ49: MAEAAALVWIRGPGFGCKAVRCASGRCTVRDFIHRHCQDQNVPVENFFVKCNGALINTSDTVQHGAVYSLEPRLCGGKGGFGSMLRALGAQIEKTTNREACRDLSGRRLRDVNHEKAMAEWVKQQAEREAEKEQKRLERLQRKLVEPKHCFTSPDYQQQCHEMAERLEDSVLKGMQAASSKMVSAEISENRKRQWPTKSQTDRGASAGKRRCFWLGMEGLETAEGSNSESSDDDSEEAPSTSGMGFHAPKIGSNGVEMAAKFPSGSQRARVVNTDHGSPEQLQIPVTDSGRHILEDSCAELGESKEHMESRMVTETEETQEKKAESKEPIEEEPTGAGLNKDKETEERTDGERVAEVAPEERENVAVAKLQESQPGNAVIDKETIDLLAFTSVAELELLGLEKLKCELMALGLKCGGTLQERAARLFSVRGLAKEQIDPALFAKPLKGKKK
UniProt Q9UNS1: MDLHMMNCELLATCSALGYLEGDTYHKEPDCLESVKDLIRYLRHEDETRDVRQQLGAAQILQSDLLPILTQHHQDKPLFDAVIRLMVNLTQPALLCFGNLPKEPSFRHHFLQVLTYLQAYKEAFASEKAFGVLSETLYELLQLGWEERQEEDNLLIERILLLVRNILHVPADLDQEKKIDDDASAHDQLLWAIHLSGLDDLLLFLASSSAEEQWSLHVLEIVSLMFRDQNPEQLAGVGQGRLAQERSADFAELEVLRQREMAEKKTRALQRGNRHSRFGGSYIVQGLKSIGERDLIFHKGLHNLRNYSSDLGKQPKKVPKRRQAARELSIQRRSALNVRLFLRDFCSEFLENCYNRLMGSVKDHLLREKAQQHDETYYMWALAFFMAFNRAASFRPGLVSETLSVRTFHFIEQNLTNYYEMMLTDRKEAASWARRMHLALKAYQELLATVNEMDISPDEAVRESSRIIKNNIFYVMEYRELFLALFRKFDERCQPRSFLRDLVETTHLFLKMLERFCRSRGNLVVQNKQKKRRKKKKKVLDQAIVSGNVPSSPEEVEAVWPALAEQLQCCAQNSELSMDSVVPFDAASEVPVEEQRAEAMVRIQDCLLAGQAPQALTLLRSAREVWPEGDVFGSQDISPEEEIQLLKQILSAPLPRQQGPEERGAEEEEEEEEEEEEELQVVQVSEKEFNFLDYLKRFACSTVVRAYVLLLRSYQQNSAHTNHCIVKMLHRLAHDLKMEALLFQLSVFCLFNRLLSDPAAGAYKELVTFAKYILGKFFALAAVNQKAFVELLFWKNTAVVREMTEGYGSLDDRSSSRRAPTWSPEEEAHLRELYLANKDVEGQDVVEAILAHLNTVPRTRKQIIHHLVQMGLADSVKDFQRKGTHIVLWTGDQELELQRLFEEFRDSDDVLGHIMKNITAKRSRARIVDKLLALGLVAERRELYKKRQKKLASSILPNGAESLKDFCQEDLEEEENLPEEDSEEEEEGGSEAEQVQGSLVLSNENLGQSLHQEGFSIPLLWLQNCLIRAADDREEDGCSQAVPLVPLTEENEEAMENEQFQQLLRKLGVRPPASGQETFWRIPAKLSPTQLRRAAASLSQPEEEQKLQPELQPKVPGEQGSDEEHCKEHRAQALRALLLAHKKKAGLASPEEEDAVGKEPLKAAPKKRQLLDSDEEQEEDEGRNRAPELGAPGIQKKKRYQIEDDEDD

How the values were obtained:
[1] = biological target: GST-SDE2, recombinant (human) (UniProt Q6IQ49); assay: pull-down; purified GST-SDE2 (or GST) on glutathione sepharose beads incubated with 293T cell lysates, 4 h at 4 °C; only the target purified
[2] = biological target: Flag-TIM (pcDNA4-Flag-TIMELESS-myc-6xHis) (human) (UniProt Q9UNS1); assay: co-IP; anti-Flag co-IP (anti-FLAG M2 affinity gel) from transfected HEK293T lysates, NETN150 buffer, 4 h at 4 °C
[3] = biological target: Flag-TIM Δ882-1208 (ΔC1) (human) (UniProt Q9UNS1); assay: as above
[4] = biological target: GST-SDE2, recombinant (human) (UniProt Q6IQ49); assay: pull-down; purified GST-SDE2 (or GST) on glutathione sepharose beads incubated with in vitro translated (IVTT) products, 4 h at 4 °C; only the target purified
[5] = biological target: SDE2, endogenous (human (endogenous in U2OS and HEK293T)) (UniProt Q6IQ49); assay: co-IP; endogenous proteins in U2OS cells, IP with an SDE2 antibody (vs. rabbit IgG control)

“Flag-TIM (pcDNA4-Flag-TIMELESS-myc-6xHis) (from UniProt Q9UNS1 1-1208)” was tested, and the binding [1] was “binds”.
With SDE2, endogenous (from UniProt Q6IQ49) the binding [2] was “binds” and the binding [3] was “no binding”.
For “TIM C-terminus (Ct; aa882-1208)-myc, expressed in 293T cells (from UniProt Q9UNS1 882-1208) (domain or fragment)”, the binding [1] was “binds”.
With “TIM C-terminus, in vitro translated (from UniProt Q9UNS1 882-1208) (domain or fragment)” the binding [4] was “binds”.
For “TIM-myc WT, in vitro transcribed and translated (IVTT) (from UniProt Q9UNS1 1-1208)”, the binding [4] was “binds”.
In the case of “TIM-myc ΔC1 mutant, in vitro transcribed and translated (IVTT) (from UniProt Q9UNS1 1-881) (domain or fragment)”, the binding [4] is reported as “no binding”.
With “TIMELESS (TIM), endogenous (from UniProt Q9UNS1 1-1208)” the binding [5] was “binds”.

No constants are given. Whether binding was seen depends on the method and setting. In cells and extracts the contact can be indirect. For some assays here: Binding calls can cover weak binding; strength is not graded here.
